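HEK-293 cells carrying an ATXN2-luciferase reporter; luminescence signal loss after 24 h of compound exposure, with a parallel cell viability readout. Compounds were tested as a dilution series from about 0.0037 to 57 µM. The number is the fitted half-maximal inhibitory concentration (AC50); a lower value means a more potent inhibitor. Calls come from curve class and activity score: actives score 40–100, while inconclusive compounds (weak, partial, poorly fitted or single-point curves) score 1–39.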

Values are in nM. All entries here are filed as inconclusive. These entries are mostly ones the record files as inconclusive; other results of the assay are not listed here. Potencies fitted to partial, single-point or poorly fitting curves are rough. Activity scores are not listed here.

| compound | fitted potency (nM) | curve as filed |
|---|---|---|
| `Cc1cc(N2CCN(Cc3nc(-c4ccc(Cl)cc4)oc3C)CC2)cc(C)n1` | 28183 | inhibitor, single point |
| `CCN(CC(=O)Nc1cccc(OC)c1)CC(=O)Nc1ccc(Br)c(C)c1` | 28183 | inhibitor, partial curve |
| `O=C(c1c(F)cccc1F)N1CCCC(c2nc(-c3ccc(Cl)cc3)no2)C1` (stereo unspecified) | 22387 | inhibitor, partial curve |
| `COc1cc(C#Cc2c(-c3cncn3C)n(C)c3ccc(-c4cnc(N5CCOCC5)nc4)cc23)cc(OC)c1` | 8912 | inhibitor, single point |
| `N=c1c2c(n(Cc3ccc(Cl)cc3)c3c1CCC3)CCC2` | 7943 | inhibitor, single point |
| `O=C(c1ccco1)N1CCCC(c2nc(-c3ccc(S(=O)(=O)NCc4ccccc4)cc3)no2)C1` (stereo unspecified) | 15848 | inhibitor, partial curve, poor fit |
| `CC1(Cc2ccc(C(F)(F)F)o2)C(=O)Nc2ccc(-c3cccc(C(F)(F)F)c3)cc21` (stereo unspecified) | 31622 | inhibitor, single point |
| `CC(=O)N1c2ccc(S(=O)(=O)N3CCC(C(=O)N4CCN(c5ccc(Cl)cc5)CC4)CC3)cc2CC1C` (stereo unspecified) | 3548 | inhibitor, partial curve, poor fit |
| `COc1ccc(-c2nc(CN3CCN(c4ncnc5ccccc45)CC3)c(C)o2)c(OC)c1` | 2239 | inhibitor, partial curve |
| `Cc1ccc(C(NC(=O)C(C)C)c2cc([N+](=O)[O-])c3cccnc3c2O)cc1` (stereo unspecified) | 3548 | inhibitor, single point |
| `Cn1nc(C(=O)N2CCN(c3ccc(Cl)cc3)CC2)c2c1-c1ccccc1S(=O)(=O)C2` | 2512 | inhibitor, partial curve, poor fit |
| `CCOC(=O)c1c(NC(=O)COC(=O)Cn2cnc3ccccc32)sc(C)c1C` | 25118 | inhibitor, single point |
| `Cc1nc2c(OCc3ccc(C(F)(F)F)cc3)cccn2c1N(C)C(=O)CCC1CCCC1` | 25118 | inhibitor, single point |
| `CN1OC[C@@H]2CN[C@H](c3ccc(-c4cc5ccccc5o4)cc3)C[C@@H]21` | 281.8 | inhibitor, full curve, poor fit |
| `CCCCC/C=C/C1=CC(=O)C[C@H](c2ccc(OC)c(OC)c2)C1` | 25118 | inhibitor, single point |
| `O=C(c1ccc(Cn2c(=S)[nH]c3ccccc3c2=O)cc1)N1CCN(c2ccccn2)CC1` | 2512 | inhibitor, partial curve, poor fit |
| `CN(CC(=O)Nc1ccc(Cl)cc1)C(=O)c1ccc(S(=O)(=O)Nc2ccccc2)cc1` | 22387 | inhibitor, partial curve, poor fit |
| `CC(=O)NC(c1cccs1)c1cc(Br)c2cccnc2c1O` (stereo unspecified) | 3162 | inhibitor, full curve, poor fit |
| `CCN(CC)CCC(c1ccc2c(c1)OCO2)c1c(OC)cc(OC)c2c(-c3ccccc3)cc(=O)oc12` (stereo unspecified) | 28183 | inhibitor, single point |
| `CCCCCCc1cc2cc(S(=O)(=O)c3ccc(Cl)cc3)c(=O)oc2cc1O` | 3548 | inhibitor, single point |
| `Cc1ccc(C)c(OCCCC(=O)Nc2nccs2)c1` | 35481 | inhibitor, single point |
| `O=C(Nc1ccc(NC(=O)c2ccc(Cl)cc2Cl)cc1)c1cccs1` | 7943 | inhibitor, partial curve, poor fit |
| `S=C(Nc1ccc(Cl)c(Cl)c1)NC1CCCCC1` | 39810 | inhibitor, single point |
| `CCC(C)Sc1cc(C(F)(F)F)c(C(=O)Nc2ccc(Cl)cc2)cn1` (stereo unspecified) | 7943 | inhibitor, single point |
| `Cc1ccc2c(c1)-c1c(cnn1CC(=O)N1CCCN(Cc3ccccc3F)C1)CO2` | 3162 | inhibitor, partial curve |
| `Cc1cccc(N2CCN(S(=O)(=O)c3ccc4c(c3)C(C)(C)C(=O)N4C)CC2)c1C` | 35481 | inhibitor, single point |
| `Nc1ccc(OC(=O)Nc2ccc(O)cc2)cc1` | 11220 | inhibitor, partial curve, poor fit |
| `Cc1ccc(C(C[N+](=O)[O-])Sc2ccc(N)cc2)cc1` (stereo unspecified) | 4467 | inhibitor, single point |
| `NC(Cc1ccc(F)cc1)c1csc(Nc2ccccn2)n1` (stereo unspecified) | 31622 | inhibitor, single point |
| `O=C(NCc1ccco1)/C(=C/c1cccc(C(F)(F)F)c1)c1nc2ccccc2[nH]1` | 3548 | inhibitor, single point |
| `COc1ccc2nc(C)c3c(c2c1)OC(C(C)(Cl)Br)C3` (stereo unspecified) | 2239 | inhibitor, partial curve |
| `O=C1C=Cc2cccc3ccc(O)c1c23` | 1585 | inhibitor, full curve, poor fit |
| `Clc1ccccc1C(c1ccccc1)(c1ccccc1)n1ccnc1` | 3162 | inhibitor, single point |
| `CC(=O)c1ccc(S(=O)(=O)N2CCN(CCOc3ccc(Br)cc3)CC2)cc1` | 3162 | inhibitor, partial curve, poor fit |
| `COc1cc(/C=C(/C#N)C(=O)NCCc2c[nH]c3ccccc23)ccc1OCc1ccccc1F` | 25118 | inhibitor, partial curve, poor fit |
| `Oc1cccc(C(O)CNCc2ccc(-c3ccccc3)cc2)c1` (stereo unspecified) | 31622 | inhibitor, single point |
| `O=c1cc(Nc2ccc3c(c2)OCCO3)[nH]c(=O)n1-c1ccc(Br)cc1` | 39810 | inhibitor, single point |
| `S=C(NCc1cccnc1)Nc1ccc(Oc2ccc(Cl)cc2)cc1` | 12589 | inhibitor, partial curve, poor fit |
| `O=C(Nc1cccc(S(=O)(=O)N2CCOCC2)c1)c1ccc2c(=O)n3c(nc2c1)CCCCC3` | 3162 | inhibitor, single point |
| `COc1ccc(N2CCN(c3cc(C)nc4ccc(OC)cc34)CC2)cc1` | 3548 | inhibitor, partial curve, poor fit |
| `Cc1ccc(NC(=O)CSc2ccc(Br)cc2)cc1S(=O)(=O)N1CCOCC1` | 17782 | inhibitor, partial curve, poor fit |
| `COc1ccc2c(c1)C(c1ccc(N(CCCl)CCCl)cc1)=NCC2` | 17782 | inhibitor, partial curve, poor fit |
| `Cc1c([N+](=O)[O-])cc(C(=O)Nc2ccc(Cc3ccncc3)cc2)cc1[N+](=O)[O-]` | 31622 | inhibitor, single point |
| `CCCCCn1c(=O)c(C(=O)NCc2ccncc2)c(O)c2ccccc21` | 35481 | inhibitor, single point |
| `N#Cc1ccc(-c2nc3cc(Cl)ccc3c(=O)n2O)cc1` | 3162 | inhibitor, single point |
| `N#C/C(=C\Nc1ccc2cn[nH]c2c1)c1nc(-c2ccc(Cl)cc2)cs1` | 3981 | inhibitor, single point |
| `Cc1cc(C)c2nc(NNC(=O)c3ccc(S(=O)(=O)N4CCCCC4)cc3)sc2c1` | 6310 | inhibitor, partial curve, poor fit |
| `COc1cc(/C=C2\COC/C(=C\c3cc(OC)c(OC)c(OC)c3)C2=O)cc(OC)c1OC` | 1412 | inhibitor, full curve, poor fit |
| `COc1ccc(Oc2c(Cl)cnn(-c3ccccc3)c2=O)cc1` | 3981 | inhibitor, single point |
| `CCc1ccc(/C=C/C(=O)c2cc(Br)ccc(=O)c2O)cc1` | 28183 | inhibitor, single point |
| `N#Cc1ccc(/C=C\c2nccc3c2[nH]c2ccccc23)cc1` | 3548 | inhibitor, partial curve |
| `COc1ccc(CSCC(=O)N/N=C/c2ccccc2O)cc1` | 19952 | inhibitor, partial curve, poor fit |
| `COc1ccc(-c2ccc(C(c3c(C)[nH][nH]c3=O)c3c(C)[nH][nH]c3=O)o2)c([N+](=O)[O-])c1` | 28183 | inhibitor, single point |
| `Cc1ccc(Sc2nnc(Cc3ccccc3)c3ccccc23)cc1` | 39810 | inhibitor, single point |

For reference, 6 entries once more:

Result for O=C1C=Cc2cccc3ccc(O)c1c23 was fitted potency 1585 nM (inhibitor, full curve, poor fit).
Result for CN1OC[C@@H]2CN[C@H](c3ccc(-c4cc5ccccc5o4)cc3)C[C@@H]21 was fitted potency 281.8 nM (inhibitor, full curve, poor fit).
Result for N#Cc1ccc(-c2nc3cc(Cl)ccc3c(=O)n2O)cc1 was fitted potency 3162 nM (inhibitor, single point).
Result for Oc1cccc(C(O)CNCc2ccc(-c3ccccc3)cc2)c1 (stereo unspecified) was fitted potency 31622 nM (inhibitor, single point).
Result for Cc1ccc(C)c(OCCCC(=O)Nc2nccs2)c1 was fitted potency 35481 nM (inhibitor, single point).
Result for O=C(c1c(F)cccc1F)N1CCCC(c2nc(-c3ccc(Cl)cc3)no2)C1 (stereo unspecified) was fitted potency 22387 nM (inhibitor, partial curve).

The results are deposited in PubChem (AID1745848; NCATS, 2022).